The other results are listed elsewhere or left out.

Chains of the proteins cited; added tags and fusions are not shown.
UniProt Q0JBA9, entry or part of it: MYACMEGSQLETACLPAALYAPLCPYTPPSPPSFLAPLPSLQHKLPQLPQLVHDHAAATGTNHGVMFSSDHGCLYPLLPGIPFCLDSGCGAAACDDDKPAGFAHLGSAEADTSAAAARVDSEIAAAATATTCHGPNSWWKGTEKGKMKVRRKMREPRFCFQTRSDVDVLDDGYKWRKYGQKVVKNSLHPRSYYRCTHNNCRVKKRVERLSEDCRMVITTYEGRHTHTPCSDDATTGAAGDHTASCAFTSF

This experiment deals with OsWRKY34 (Oryza sativa, UniProt Q0JBA9 1-250). Nature of the experiment: protein-binding microarray (RPBM); PBS, 2% BSA, 51.3 ng/ul salmon testes DNA, 50 uM zinc acetate, 200 nM TF, 25 C, 1 h; high values mean tight binding. The settings on record: protein: recombinant; tags: N-terminal polyhistidine and DsRed monomer fusion (pET32a); label: CyDye5-dUTP incorporated in the synthesized complementary strand; 3' TTTTT single-stranded linker to array surface; dsDNA, one strand shown. Put shortly:
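Binding signal here means per-feature fluorescence intensity in arbitrary units. The values were read on an Axon 4000B scanner after a custom Agilent array, double-stranded by primer extension with Cy5-dUTP, was incubated with 200 nM protein at 25 °C for 1 h in PBS with 2% BSA, salmon testes DNA and 50 µM zinc acetate, then washed. The proteins were transcription factors with an N-terminal polyhistidine tag and DsRed, expressed in E. coli BL21-CodonPlus and purified on Ni–NTA.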
For “CCCCACCATTCTATTCCGTCCACACATTCCTTTCTTACAACGGAGTCACCTAGTGCAG”, the binding signal is 8420 fluorescence intensity (a.u.).

Regarding “TGAGGTTGGTGTTGACGCTGTTGTCGACGAAGCTGGATGTCGGAGTCACCTAGTGCAG”, the binding signal is 9590 fluorescence intensity (a.u.).

As to “GCCTGCCTGCGACACACGCAGCAATCTAGCTCGTCACGTACGGAGTCACCTAGTGCAG”, the binding signal was 9380 fluorescence intensity (a.u.).

On to “CATTTGGTACAGCGTCAATTTCATCCCACTCACTTTGTTTCGGAGTCACCTAGTGCAG”, for which the binding signal was 11800 fluorescence intensity (a.u.).

Take “CCATTACAGGTGTCGCAGCACCTTGTTTCTTCAGTTGCTGCGGAGTCACCTAGTGCAG”: the binding signal is 8020 fluorescence intensity (a.u.).

As for “CCCTCTATAAATGGTTCCTATCACAACCACAAACACCACACGGAGTCACCTAGTGCAG”, the binding signal was 8240 fluorescence intensity (a.u.).

For “GATGAAAACATTATCAATCATTCTCTTTTTCTTTCTTTTTCGGAGTCACCTAGTGCAG”, the binding signal is 9260 fluorescence intensity (a.u.).

Regarding “CTTTCACCCTACTAAACATTGTAATTGTATATGTGGATCACGGAGTCACCTAGTGCAG”, the binding signal was 9500 fluorescence intensity (a.u.).

For the sequence “TCCTCGCGTTCTTTTTCTCCACCGAGACCACCGGCGCTCTCGGAGTCACCTAGTGCAG”, the binding signal was 9050 fluorescence intensity (a.u.).

For “TCCACCGCCTCCGGCCGCCTCTCCGGCGATCGCCGACTTCCGGAGTCACCTAGTGCAG”, the binding signal is 8440 fluorescence intensity (a.u.).

In the case of “ATTTACAAAAATTATCCTTTTTCTTTATCCACCAGCTTCTCGGAGTCACCTAGTGCAG”, the binding signal was 8630 fluorescence intensity (a.u.).

On to “GCTACCCTTTTTCCCTGATATCTATCCCCTTTCCATTGTACGGAGTCACCTAGTGCAG”, for which the binding signal was 9950 fluorescence intensity (a.u.).

For “AAATGTGTTGTTGTCTGGTTTGATTCCCTATCAAAATTTACGGAGTCACCTAGTGCAG”, the binding signal is 9510 fluorescence intensity (a.u.).

“ATATATAGCCTCTGCCTAAAACCATCATGCTCCTTCAGTTCGGAGTCACCTAGTGCAG”: the binding signal is 9250 fluorescence intensity (a.u.).

Regarding “TAAGACAAACGGTCAAACATATGCTAAAAAGTCAACGGCGCGGAGTCACCTAGTGCAG”, the binding signal was 11300 fluorescence intensity (a.u.).

As to “TACTTATGTAACACCTTTTGTATCTGAATGTATTTATTTCCGGAGTCACCTAGTGCAG”, the binding signal is 9790 fluorescence intensity (a.u.).

Consider “GGGGCACAGTTTCTTCAACCTCCAGCCATTAGGAACTTTTCGGAGTCACCTAGTGCAG”, for which the binding signal was 8150 fluorescence intensity (a.u.).

Consider “ACGAGCCTGTGTCCCCACGCTACACATTCTGTTTGCTCTTCGGAGTCACCTAGTGCAG”, for which the binding signal is 9910 fluorescence intensity (a.u.).

Turning to “AATACCGTCAGTTCTTGCAGCCAACCGCATCCGCCATAAACGGAGTCACCTAGTGCAG”, the binding signal was 8850 fluorescence intensity (a.u.).

With “AGTAGTCTTATAGCATGTTTTGCTTGTGTGCTTTGTTTGTCGGAGTCACCTAGTGCAG”, the binding signal is 12700 fluorescence intensity (a.u.).

Take “GTCCCGATCCGCCGTTGACCAAGATCGACCCCGATCACCTCGGAGTCACCTAGTGCAG”: the binding signal is 14900 fluorescence intensity (a.u.).

Regarding “GGGGATTTGGGGAGACTTTTGGAGGGGAGGAGAGAGGGCGCGGAGTCACCTAGTGCAG”, the binding signal is 19700 fluorescence intensity (a.u.).

As to “TTTAGATATCAGCCGTGCACTTTACTTTTTTTTTTTTTCGCGGAGTCACCTAGTGCAG”, the binding signal was 8390 fluorescence intensity (a.u.).
